Source: PubChem BioAssay AID504444 (National Center for Advancing Translational Sciences (NCATS), 2011)
Screen size: about 360,000 compounds; about 7,500 (2.1%) were called active. The inconclusive results got no clear call from the source; some entries with a clear call stand among them for comparison. Calls follow the shape of the dose curve; as a rule, active = well fitted inhibition curve with a large enough effect; inconclusive = small, poorly fitted or top-dose-only effect, or effect the other way; inactive = flat fitted curve, though single readings scatter. A potency beside an inconclusive call is a rough fit, not a confirmed value.
Potency is read from the fitted curve at half-maximal effect.

Assay: Nrf2 qHTS screen for inhibitors; also: nearly all actives have a fitted effect of over 60% in size
Conditions: A549 ARE-Fluc reporter, luciferase luminescence, 18-24 h; series mostly up to 46 µM
Procedure, shortened: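 Cells were seeded and rested 2 h, then exposed to compounds for 18-24 h. CellTiter-Fluor was read first as a viability measure. BugLite was added 15 min before the final luminescent read of ARE-luciferase activity in A549 cells.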
In the case of `COC(=O)c1sccc1NC(=O)c1ccc(Br)s1`, the Potency is reported as inconclusive: 0.103 µM [activator, full curve, poor fit].
In the case of `c1cncc(-c2ccc3ncnc(NCc4cccs4)c3c2)c1`, the Potency is reported as “inactive”.
For `COc1ccc(-n2nc(C(=O)NCCCN3CCCC3=O)c3c4ccccc4n(C)c3c2=O)cc1Cl`, the Potency was inconclusive: 29.1 µM [falling, single point].
In the case of `Cc1ccc(C(=O)NNC(=O)CCn2nnc3ccccc32)cc1`, the Potency is reported as inconclusive: 29.1 µM [activator, single point].
In the case of `O=C(CCN1C(=O)c2ccccc2S1(=O)=O)Nc1cc(Cl)ccc1Cl`, the Potency is reported as “inactive”.
With `CCN(CC)C(=O)C1=C(C)Nc2nc3ccccc3n2C1c1cccc(Cl)c1` (stereo unspecified) the Potency was “inactive”.
With `CCc1cc(C(=O)OC)c(NC(=O)CN2CCN(C(=O)c3ccco3)CC2)s1` the Potency was inconclusive: 10.3 µM [falling, partial curve].
In the case of `COc1ccc(N=c2sc3ccccc3n2C)cc1`, the Potency is reported as inconclusive: 8.2 µM [activator, partial curve].
In the case of `CCC(=O)Nc1sc(C(=O)Nc2ccccc2OC)c(C)c1C(=O)OC`, the Potency is reported as inconclusive: 7.31 µM [activator, partial curve].
With `COc1ccc(-c2cc(=O)oc3c(C)c(OC(C)C(=O)NCc4ccccn4)ccc23)cc1` (stereo unspecified) the Potency was inconclusive: 25.9 µM [falling, partial curve, poor fit].
In the case of `N/C(=N\OC(=O)c1cccc(Cl)c1)c1ccccn1`, the Potency is reported as inconclusive: 0.326 µM [activator, full curve, poor fit].
With `Cc1cc(C)cc(NC(=O)c2sc3nc(C)cc(C)c3c2N)c1` the Potency was inconclusive: 29.1 µM [falling, single point].
With `Cc1cc2ccccc2n2c(SCC(=O)Nc3ccc(S(=O)(=O)N4CCCCC4)cc3)nnc12` the Potency was inconclusive: 25.9 µM [falling, partial curve].
For `Cc1ccc(C(=O)NCC(=O)OCC(=O)Nc2ccccc2C#N)s1`, the Potency was inconclusive: 32.6 µM [activator, partial curve, poor fit].
In the case of `COc1ccc2c(ccc[n+]2[O-])c1`, the Potency is reported as “inactive”.
For `Cc1cc(-n2cc(Br)c(=O)[nH]c2=O)nc(-c2ccccc2)n1`, the Potency was inconclusive: 25.9 µM [falling, partial curve, poor fit].
For `COc1ccccc1CNC(=O)c1ccc2nc3[nH]c4ccccc4c3nc2c1`, the Potency was active: 14.6 µM.
In the case of `COc1ccccc1CNC(=O)c1cc2ccccc2o1`, the Potency is reported as inconclusive: 25.9 µM [activator, partial curve, poor fit].
With `O=C(CN1CCN(Cc2cccc(F)c2)CC1)Nc1ccccc1F` the Potency was “inactive”.
For `Cc1ccc(-c2nc3ccccc3s2)cc1S(=O)(=O)N1CCCC1`, the Potency was inconclusive: 16.4 µM [falling, single point].
For `C/C(=N\Nc1ccccn1)c1ccc(C#N)cc1`, the Potency was inconclusive: 16.4 µM [activator, partial curve].
For `CCOC(=O)/C=C/c1ccc2oc3ccccc3c(=O)c2c1`, the Potency was inconclusive: 5.8 µM [activator, partial curve].
For `COc1ccc(CNC(=O)c2cc(C)nc3c2c(C)nn3-c2cccc(Cl)c2C)cc1`, the Potency was inconclusive: 7.31 µM [falling, partial curve, poor fit].
For `CC(C)CN(CCCNC(=O)c1cn(C)c2ccc(S(=O)(=O)N(C)C3CCCCC3)cc2c1=O)CC(C)C`, the Potency was “inactive”.
For `O=C(c1cc(COc2ccc(F)cc2Cl)on1)N1CCC(c2ccncc2)CC1`, the Potency was inconclusive: 20.6 µM [falling, single point].
For `Cc1ccccc1Nc1nc(N)nc(COC(=O)c2ccccc2)n1`, the Potency was inconclusive: 20.6 µM [activator, single point].
For `COC(=O)c1ccc(NC(=O)CCS(=O)(=O)c2ccc3c(c2)NC(=O)C(C)S3)cc1` (stereo unspecified), the Potency was inconclusive: 20.6 µM [falling, partial curve, poor fit].
For `CN(c1cccc(NC(=O)COc2ccccc2)c1)S(C)(=O)=O`, the Potency was inconclusive: 1.84 µM [activator, full curve].
For `O=S(=O)(c1ccc(C(F)(F)F)cc1)N1CCN(c2nc(-c3cccs3)nc3ccccc23)CC1`, the Potency was “inactive”.
In the case of `O=C(NCc1cccc2ccccc12)c1cccs1`, the Potency is reported as inconclusive: 13 µM [activator, partial curve, poor fit].
For `CCOC(=O)c1c(-c2ccc(C)cc2)csc1NC(=O)CCSc1nnc2ccccn12`, the Potency was inconclusive: 3.66 µM [falling, partial curve].
For `Cc1ccc(C(=O)NCCc2ccccc2)cc1S(=O)(=O)N1CCOCC1`, the Potency was inconclusive: 3.26 µM [activator, full curve, poor fit].
With `CC(C)(C)c1ccc(C(=O)N2CCN(CCNC(=O)C(=O)NCc3ccc(Cl)cc3)CC2)cc1` the Potency was active: 20.6 µM.
In the case of `CSCc1ccc(C(=O)N2CCCC(Nc3ccc4c(c3)OCCO4)C2)o1` (stereo unspecified), the Potency is reported as “inactive”.
For `O=C(CSc1nnc(NC(=O)c2ccccc2F)s1)Nc1ccccc1F`, the Potency was inconclusive: 7.31 µM [activator, partial curve].
With `COc1cc(OC)c2c(-c3cccc(-c4cccc(N)c4)c3)cc(=O)oc2c1` the Potency was inconclusive: 25.9 µM [falling, single point].
With `COc1ccccc1NC(=O)c1cccc(S(=O)(=O)N2CCN(c3ccccc3)CC2)c1` the Potency was inconclusive: 7.31 µM [falling, partial curve].
For `CCOc1ccc(NC(=O)Nc2cc(C)ccc2F)cc1`, the Potency was inconclusive: 13 µM [activator, partial curve, poor fit].
With `Cc1sc2ncnc(N3CCC(C(=O)NNC(=O)COc4ccc(Cl)cc4)CC3)c2c1C` the Potency was inconclusive: 32.6 µM [falling, single point].
With `C=C1/C=C(\C)C(C)(O)CC(O)CC(=O)C(O)C(O)C(C)CC(C)OC(=O)/C(C)=C/CC/C=C/C(OC)C(O)CC(C)C1` (stereo unspecified) the Potency was inconclusive: 16.4 µM [falling, partial curve, poor fit].
With `Cc1nc2ccc(NS(=O)(=O)c3c(F)cccc3F)cc2s1` the Potency was inconclusive: 23.1 µM [falling, single point].
For `O=C(NCc1ccco1)c1ccc2c(c1)N(Cc1ccccc1F)C(=O)c1ccccc1S2=O` (stereo unspecified), the Potency was inconclusive: 23.1 µM [falling, partial curve].
For `COc1ccc(NC(=O)Nc2ccc(F)cc2F)cc1`, the Potency was inconclusive: 3.66 µM [activator, full curve].
For `CSc1nc(C)c(CCOC(=O)c2cccc(Cl)c2)c(=O)[nH]1`, the Potency was inconclusive: 11.6 µM [falling, partial curve, poor fit].
In the case of `Cc1ccc(OCCNC(=O)c2cncc(Br)c2)cc1C`, the Potency is reported as inconclusive: 29.1 µM [falling, single point].
In the case of `COc1cccc(-c2cc(C(=O)Nc3nc4ccccc4s3)c3ccccc3n2)c1`, the Potency is reported as “inactive”.
In the case of `COc1cccc(NC(=O)CCN2C(=O)C3CC=CCC3C2=O)c1` (stereo unspecified), the Potency is reported as “inactive”.
With `CC12CCC(=O)C=C1CCC1C2CCC2(C)C1CC1C3C(=O)N(Cc4ccccc4)C(=O)C3CC(=O)C12` (stereo unspecified) the Potency was inconclusive: 14.6 µM [falling, partial curve].
In the case of `Cc1cc(S(=O)(=O)Nc2cccc([N+](=O)[O-])c2)c(C)s1`, the Potency is reported as inconclusive: 23.1 µM [falling, partial curve, poor fit].
With `CCC1CCCCN1CCCNC(=O)c1ccc2nc(N3CCC(C)CC3)sc2c1` (stereo unspecified) the Potency was inconclusive: 0.082 µM [activator, full curve].
In the case of `Cc1nc2c(C(=O)NCCC(C)C)c[nH]n2c(=O)c1Cl`, the Potency is reported as “inactive”.
For `CN(c1ccccc1)C1CCCCC1NS(=O)(=O)c1ccc(Cl)cc1` (stereo unspecified), the Potency was inconclusive: 20.6 µM [falling, single point].
In the case of `O=C(COC(=O)c1cc(-c2ccccc2)nc2c(Cl)cccc12)c1ccc(F)cc1`, the Potency is reported as “inactive”.
In the case of `O=S(=O)(Nc1ccc(-c2cn3cccnc3n2)cc1)c1ccccc1`, the Potency is reported as inconclusive: 32.6 µM [falling, single point].
In the case of `CC[C@H](CO)Nc1nc(Nc2cccc(Cl)c2)c2ncn(C(C)C)c2n1`, the Potency is reported as inconclusive: 23.1 µM [falling, partial curve, poor fit].
For `CSc1cccc(CN2CCC(CO)(Cc3cccc(C(F)(F)F)c3)CC2)c1`, the Potency was “inactive”.
In the case of `Cc1ccc(N(CN2CCCC2=O)C(=O)c2ccc(C)c(C)c2)cc1`, the Potency is reported as inconclusive: 6.51 µM [falling, single point].
With `COC(=O)Cn1ncn2c(cc3oc(C)cc32)c1=O` the Potency was inconclusive: 1.3 µM [activator, partial curve, poor fit].
For `O=S(=O)(Nc1ccc(-n2cccc2)cc1)c1ccc(Cl)c(Cl)c1`, the Potency was “inactive”.
With `Cc1nn(C)cc1/C=C1\CCC/C(=C\c2cn(C)nc2C)C1=O` the Potency was inconclusive: 20 µM [falling, single point].
For `ClCC1NCC(c2ccccc2Cl)c2c1[nH]c1ccccc21` (stereo unspecified), the Potency was “inactive”.
With `CCOc1ccc(S(=O)(=O)N(C(=O)c2ccncc2)c2ccc3oc(C)c(C(=O)OC)c3c2)cc1` the Potency was active: 0.651 µM.
For `Oc1ccccc1-c1cc(-c2ccc(F)cc2)n[nH]1`, the Potency was inconclusive: 29.1 µM [activator, single point].
In the case of `COc1ccc(CCNC(=O)C(C)SCc2ccccc2)cc1` (stereo unspecified), the Potency is reported as inconclusive: 20.6 µM [falling, partial curve, poor fit].
In the case of `CCOc1ccc(NC(=O)C2CC(=O)N(C)C(=Nc3ccc4c(c3)OCO4)S2)cc1` (stereo unspecified), the Potency is reported as inconclusive: 25.9 µM [activator, single point].
In the case of `Cc1ccc(-c2cc(-c3ccc(F)cc3)n[nH]2)c(O)c1`, the Potency is reported as inconclusive: 5.8 µM [activator, partial curve].
